Measurements from “University of Dundee, Small-Polar-MMV Screening Library” (2021), ChEMBL document CHEMBL3988442.

Mtb growth Cornell: 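Whole-cell assay for inhibitors of Mycobacterium tuberculosis growth, labelled Cornell in the record; the read-out is not stated. The concentration is filed as 10 mM, unlikely as a test dose, so the dose is not known. Higher means stronger inhibition (inferred from two other growth screens of the library). Of about 53,000 compounds tested this way, about 900 (1.7%) reached 50% or more in at least one test.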
Mtb heat-shock: 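Assay on Mycobacterium tuberculosis, filed only as a heat shock assay from Cornell; the read-out is not stated. The concentration is filed as 10 mM, unlikely as a test dose, so the dose is not known. The record gives no direction; compounds that gave an IC50 in retests scored well above the rest, so higher reads as stronger inhibition. Of about 69,000 compounds tested this way, about 930 (1.4%) reached 50% or more in at least one test.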

Each number is a percent effect as filed.
How 0% and 100% were set is not recorded. Most values in the screen are low, and negative values occur.
This is an unselected part of the compounds tested.

- O=C(O)C(F)(F)F.[H][C@@]12CN(C(=O)COC)C[C@]1([H])C(=O)N(Cc1csc(C)n1)C2 | Mtb growth Cornell: -1.234%; Mtb heat-shock: -2.938%
- Cc1cccc(CCC(=O)NCC2CCCN2c2cccnn2)c1 (configuration not stated) | Mtb growth Cornell: -8.976%; Mtb heat-shock: -4.352%
- CCOCc1nnc2n1CCN(Cc1c(C)noc1C)CC2.O=C(O)C(F)(F)F | Mtb growth Cornell: -32.35%; Mtb heat-shock: -15.64%
- Cc1ccc(CN2Cc3nccn3CC(CN(C)C)C2)s1.O=C(O)C(F)(F)F.O=C(O)C(F)(F)F (configuration not stated) | Mtb growth Cornell: 24.87%; Mtb heat-shock: -42.32%
- Cc1ccc(C(C)NC(=O)N2CCNC(=O)CC2)cc1F (configuration not stated) | Mtb growth Cornell: 13.17%; Mtb heat-shock: -30.94%
- Cc1cc(N(C)CCN(C)C2CCCC2)n2nc(C)cc2n1 | Mtb growth Cornell: 13.61%; Mtb heat-shock: 2.788%
- Cc1cc(C)nc(NC2CC(=O)N(C(C)(C)C)C2)n1 (configuration not stated) | Mtb growth Cornell: -19.41%; Mtb heat-shock: 5.095%
- O=C(Nc1cccnc1N1CCSCC1)c1ccc2c(c1)CCC2 | Mtb growth Cornell: 4.84%; Mtb heat-shock: -11%
- COCCC(=O)N1CCCC(CCC(=O)NCc2cccc(OC)c2)C1 (configuration not stated) | Mtb heat-shock: -7.572%
- O=C(NCCN1CCOCC1)N1CCN(c2ccccc2)CC1 | Mtb heat-shock: 23.48%
- O=C(O)CC(O)(CC(=O)O)C(=O)O.c1cncc(-c2nccc(CN3CCC(N4CCCCC4)CC3)n2)c1 | Mtb growth Cornell: -18%; Mtb heat-shock: -13.06%
- CCC(C)N1CCc2c(C(=O)N(C)Cc3ccccn3)nn(C)c2C1 (configuration not stated) | Mtb growth Cornell: 26.41%; Mtb heat-shock: -2.155%
- CCOCc1cccc(S(=O)(=O)Nc2ncc(C)s2)c1 | Mtb growth Cornell: 5.092%; Mtb heat-shock: 52.82%
- OC(CNCc1nnc2ccccn12)c1ccc2c(c1)OCCCO2 (configuration not stated) | Mtb growth Cornell: 8.189%; Mtb heat-shock: 15.92%
- CN(Cc1ccco1)C1CCC12CCN(C(=O)c1ccncc1)CC2 (configuration not stated) | Mtb heat-shock: -0.2896%
- Cc1cc(C)n(CC2CCCN2Cc2c(C)noc2C)n1 (configuration not stated) | Mtb growth Cornell: -14.71%; Mtb heat-shock: -8.88%
- Cc1cnn(CC2CCCN2Cc2noc(-c3ccccc3)n2)c1 (configuration not stated) | Mtb growth Cornell: 10.45%; Mtb heat-shock: -2.457%
- Cc1nc(-c2cc(C(=O)N3CCCN(C)CC3)c3ccccn23)cn1C.O=C(O)C(F)(F)F | Mtb growth Cornell: -12.35%; Mtb heat-shock: -1.358%
- Cn1cc(C2CCCN2CCc2nc3ccccc3c(=O)[nH]2)cn1 (configuration not stated) | Mtb heat-shock: 2.636%
- COc1ccc2cc(C3CN(C(=O)CCNC(C)=O)CCO3)ccc2c1 (configuration not stated) | Mtb growth Cornell: 27.08%; Mtb heat-shock: -0.477%
- Cc1cc(C)n(-c2cccc(NC(=O)N3CCC[C@@H]3CO)c2)n1 | Mtb growth Cornell: 1.2%; Mtb heat-shock: -5.401%
- CCc1cnc2c(c1Nc1ccccc1OC)c(=O)n(C)c(=O)n2C | Mtb growth Cornell: 7.259%; Mtb heat-shock: 19.19%
- CCCc1nc(C)c(C(=O)NC2CCN(CC(N)=O)CC2)s1 | Mtb growth Cornell: 9.163%; Mtb heat-shock: -0.7785%
- CCc1c(C)nn(CCNC(=O)Cc2csc(C)n2)c1C | Mtb growth Cornell: 1.858%; Mtb heat-shock: -13.65%
- O=C(O)C(F)(F)F.O=C(O)C(F)(F)F.[H][C@@]12OCCN(Cc3nccs3)[C@@]1([H])CC[C@H]2OCc1cccc(C)n1 | Mtb growth Cornell: 14.2%; Mtb heat-shock: -30.62%
- c1cc(-c2c[nH]c([C@@H]3COCCN3C3CCCCC3)n2)ccn1 | Mtb growth Cornell: 4.584%; Mtb heat-shock: 6.923%
- O=C(c1cc(C2CCCCN2CCO)n[nH]1)N1CCOCC1.O=CO (configuration not stated) | Mtb growth Cornell: -13.36%; Mtb heat-shock: -9.608%
- [H][C@]12CC[C@]([H])(CN(CC(=O)N(C)C)C1)N(Cc1c(F)cccc1Cl)C2 | Mtb growth Cornell: -4.753%; Mtb heat-shock: 6.354%
- COc1ccccc1OCCCc1cc(C#N)ccn1 | Mtb growth Cornell: 21.48%; Mtb heat-shock: 22.54%
- Cn1cc(CNC(=O)C2CCCN(Cc3cccc(F)c3)C2)cn1 (configuration not stated) | Mtb growth Cornell: 2.787%; Mtb heat-shock: -5.904%
- CC(C)c1nc(C(=O)N2CCCC(N)CC2)cs1 (configuration not stated) | Mtb growth Cornell: 6.306%; Mtb heat-shock: -3.165%
- COc1cc(CCC(=O)NC(C)C(=O)O)ccc1OCC(F)(F)F (configuration not stated) | Mtb growth Cornell: -63.03%; Mtb heat-shock: -5.81%
- O=C(O)C(F)(F)F.[H][C@@]12CNC(=O)[C@H](C)[C@]1([H])CN(Cc1cccc(F)c1)C2 | Mtb growth Cornell: 17.71%; Mtb heat-shock: -2.092%
- O=C(NCCN1CCC(c2cccs2)CC1)c1ccccc1C(F)(F)F | Mtb growth Cornell: 2.423%; Mtb heat-shock: 1.774%
- CC(C)[C@]1(O)CN(C(=O)CNC(N)=O)C[C@H]1C | Mtb growth Cornell: -8.787%; Mtb heat-shock: -3.139%
- CC(=O)N[C@H]1CN(S(=O)(=O)N(C)Cc2ccccc2)C[C@@H]1C1CC1 | Mtb growth Cornell: 14.84%; Mtb heat-shock: 8.613%
- CC(C)CN1CC(C(=O)NCCOc2ccc3c(c2)OCO3)CC1=O (configuration not stated) | Mtb growth Cornell: -4.118%; Mtb heat-shock: 1.558%
- O=C(NCCc1ccccc1)c1cccc(S(=O)(=O)NC2CCOC2)c1 (configuration not stated) | Mtb heat-shock: -15.52%
- CC[C@H]1N(C)CCC[C@]12CCC(=O)N2Cc1ccncc1.O=C(O)C(F)(F)F.O=C(O)C(F)(F)F | Mtb growth Cornell: 4.525%; Mtb heat-shock: -18.81%
- Cc1ncncc1C(=O)N1CCOC(C)(C(=O)NC2CCCC2)C1 (configuration not stated) | Mtb growth Cornell: -19.02%; Mtb heat-shock: -5.67%

Some entries from above, unchanged:

* O=C(O)C(F)(F)F.[H][C@@]12CN(C(=O)COC)C[C@]1([H])C(=O)N(Cc1csc(C)n1)C2 | Mtb growth Cornell: -1.234%; Mtb heat-shock: -2.938%
* Cc1ccc(C(C)NC(=O)N2CCNC(=O)CC2)cc1F (configuration not stated) | Mtb growth Cornell: 13.17%; Mtb heat-shock: -30.94%
* COc1cc(CCC(=O)NC(C)C(=O)O)ccc1OCC(F)(F)F (configuration not stated) | Mtb growth Cornell: -63.03%; Mtb heat-shock: -5.81%
* Cn1cc(C2CCCN2CCc2nc3ccccc3c(=O)[nH]2)cn1 (configuration not stated) | Mtb heat-shock: 2.636%
* CCOCc1nnc2n1CCN(Cc1c(C)noc1C)CC2.O=C(O)C(F)(F)F | Mtb growth Cornell: -32.35%; Mtb heat-shock: -15.64%